Reference: article PMC5436907
Positions count from the first letter of the chain named. No constants are given. Whether binding was seen depends on the method and setting. In cells and extracts the contact can be indirect. Some entries that bind do so weakly or less than the wild type.

Chains of the proteins cited; added tags and fusions are not shown. Residues count along the entry.
UniProt Q9Z0F8, residues 215-827: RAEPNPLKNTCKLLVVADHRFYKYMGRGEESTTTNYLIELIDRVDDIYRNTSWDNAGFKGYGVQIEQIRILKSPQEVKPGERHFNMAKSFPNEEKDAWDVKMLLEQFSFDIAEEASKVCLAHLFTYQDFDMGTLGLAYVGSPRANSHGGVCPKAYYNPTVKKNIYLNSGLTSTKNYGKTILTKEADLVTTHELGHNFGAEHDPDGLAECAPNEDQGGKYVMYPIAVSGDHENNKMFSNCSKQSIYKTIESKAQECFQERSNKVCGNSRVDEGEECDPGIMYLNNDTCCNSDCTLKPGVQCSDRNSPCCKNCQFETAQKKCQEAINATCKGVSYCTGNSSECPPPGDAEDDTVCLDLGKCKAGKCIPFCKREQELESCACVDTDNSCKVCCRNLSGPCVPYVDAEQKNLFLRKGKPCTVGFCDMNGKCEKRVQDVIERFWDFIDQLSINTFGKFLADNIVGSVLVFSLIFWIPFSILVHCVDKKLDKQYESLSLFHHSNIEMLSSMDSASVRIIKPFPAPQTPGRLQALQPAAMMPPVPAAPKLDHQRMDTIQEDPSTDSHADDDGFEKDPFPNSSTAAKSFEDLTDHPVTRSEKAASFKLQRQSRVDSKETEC

Experiments:
[1] = target: T1, mouse iRhom2^Site1-2-3xHA (mouse) (UniProt Q80WQ6); experiment: co-IP; DKO MEFs stably transduced with iRhom2-3xHA forms, with or without PMA (20-200 nM, 15-30 min) or histamine (300 µM, 15 min); 1% Triton X-100, 150 mM NaCl, 50 mM Tris-HCl pH 7.4; HA antibody-coupled beads, 4°C; blots for TACE and 14-3-3
T1 sequence: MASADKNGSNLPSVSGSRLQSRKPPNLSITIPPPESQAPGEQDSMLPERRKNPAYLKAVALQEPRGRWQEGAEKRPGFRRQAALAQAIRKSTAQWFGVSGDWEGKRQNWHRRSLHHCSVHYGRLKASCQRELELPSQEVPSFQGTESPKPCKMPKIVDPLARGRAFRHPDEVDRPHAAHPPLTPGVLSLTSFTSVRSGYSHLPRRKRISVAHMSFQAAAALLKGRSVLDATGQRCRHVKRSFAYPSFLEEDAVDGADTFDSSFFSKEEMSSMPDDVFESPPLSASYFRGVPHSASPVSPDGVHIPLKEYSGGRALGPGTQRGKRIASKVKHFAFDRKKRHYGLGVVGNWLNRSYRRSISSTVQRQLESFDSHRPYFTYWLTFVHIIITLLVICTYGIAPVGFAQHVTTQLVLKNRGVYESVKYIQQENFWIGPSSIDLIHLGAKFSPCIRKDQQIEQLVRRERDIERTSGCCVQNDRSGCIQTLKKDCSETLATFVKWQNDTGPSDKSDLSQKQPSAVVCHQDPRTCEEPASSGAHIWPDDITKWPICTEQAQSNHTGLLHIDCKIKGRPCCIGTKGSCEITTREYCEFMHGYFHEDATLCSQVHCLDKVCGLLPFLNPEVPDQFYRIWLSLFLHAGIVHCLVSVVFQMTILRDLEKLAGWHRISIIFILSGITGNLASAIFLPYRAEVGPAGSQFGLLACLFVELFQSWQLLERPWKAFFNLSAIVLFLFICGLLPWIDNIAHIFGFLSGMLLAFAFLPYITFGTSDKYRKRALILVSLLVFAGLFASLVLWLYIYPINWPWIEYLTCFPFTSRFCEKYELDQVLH

[2] = target: T2, mouse iRhom2^Site1-3-3xHA (mouse) (UniProt Q80WQ6); experiment: as above
T2 sequence: T1 sequence with S357A, S359A, S360A, T361A

[3] = target: T3, mouse iRhom2^R18-3xHA (mouse) (UniProt Q80WQ6); experiment: as above
T3 sequence: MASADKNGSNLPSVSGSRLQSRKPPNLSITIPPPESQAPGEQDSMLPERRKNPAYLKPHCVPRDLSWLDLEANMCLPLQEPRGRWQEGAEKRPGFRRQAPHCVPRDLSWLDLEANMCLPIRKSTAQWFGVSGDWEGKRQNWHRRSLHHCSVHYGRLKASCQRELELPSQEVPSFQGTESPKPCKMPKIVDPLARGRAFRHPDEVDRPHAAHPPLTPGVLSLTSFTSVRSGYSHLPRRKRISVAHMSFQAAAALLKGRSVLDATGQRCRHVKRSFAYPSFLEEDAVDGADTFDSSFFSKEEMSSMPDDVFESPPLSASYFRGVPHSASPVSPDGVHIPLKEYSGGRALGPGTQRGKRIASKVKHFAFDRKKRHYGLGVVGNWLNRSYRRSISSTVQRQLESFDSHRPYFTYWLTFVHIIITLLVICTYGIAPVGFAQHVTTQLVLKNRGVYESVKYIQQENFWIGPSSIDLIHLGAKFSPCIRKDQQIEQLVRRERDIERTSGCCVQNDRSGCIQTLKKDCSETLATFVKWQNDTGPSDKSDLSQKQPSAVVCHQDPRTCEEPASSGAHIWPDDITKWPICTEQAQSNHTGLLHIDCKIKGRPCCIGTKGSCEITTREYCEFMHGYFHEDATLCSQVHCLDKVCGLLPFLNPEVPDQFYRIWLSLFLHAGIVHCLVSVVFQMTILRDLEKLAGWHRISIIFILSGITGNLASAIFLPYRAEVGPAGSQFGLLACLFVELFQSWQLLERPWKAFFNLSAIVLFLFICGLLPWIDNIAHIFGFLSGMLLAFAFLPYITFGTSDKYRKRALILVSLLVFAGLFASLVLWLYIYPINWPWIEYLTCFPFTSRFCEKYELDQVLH

[4] = target: T2, mouse iRhom2^Site1-3-3xHA (mouse); experiment: co-IP; plasma membrane immunoprecipitation: DKO MEFs with or without 200 nM PMA for 5 min, intact cells on ice incubated with mouse anti-HA antibody for 1 hr, washed, lysed in TX-100 buffer, ProteinA-coupled agarose beads; blot for TACE
[5] = target: T4, mouse iRhom2^ΔNT-3xHA (mouse) (UniProt Q80WQ6); experiment: co-IP; WT MEFs transduced with HA-tagged iRhom2 forms; HA immunoprecipitates probed for TACE
T4 sequence: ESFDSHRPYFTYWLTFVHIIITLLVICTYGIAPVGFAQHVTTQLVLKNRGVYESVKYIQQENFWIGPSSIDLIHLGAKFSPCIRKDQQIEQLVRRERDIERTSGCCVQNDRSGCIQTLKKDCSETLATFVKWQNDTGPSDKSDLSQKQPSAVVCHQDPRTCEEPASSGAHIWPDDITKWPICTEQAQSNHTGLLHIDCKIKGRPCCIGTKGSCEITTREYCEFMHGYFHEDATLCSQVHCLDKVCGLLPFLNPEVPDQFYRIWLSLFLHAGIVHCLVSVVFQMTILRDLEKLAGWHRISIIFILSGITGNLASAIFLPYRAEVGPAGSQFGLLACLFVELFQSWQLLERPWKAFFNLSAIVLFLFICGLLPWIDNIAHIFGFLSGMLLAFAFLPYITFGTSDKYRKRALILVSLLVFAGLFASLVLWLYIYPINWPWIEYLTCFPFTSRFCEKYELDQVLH

## mature TACE (from UniProt Q9Z0F8 215-827) (enzyme)
[1]
  binding: binds
[2]
  binding: binds
[3]
  binding: binds
[4]
  binding: binds
[5]
  binding: no binding
